Results of single-concentration screens

Chains of the proteins cited; added tags and fusions are not shown.
UniProt P9WFT3, whole entry: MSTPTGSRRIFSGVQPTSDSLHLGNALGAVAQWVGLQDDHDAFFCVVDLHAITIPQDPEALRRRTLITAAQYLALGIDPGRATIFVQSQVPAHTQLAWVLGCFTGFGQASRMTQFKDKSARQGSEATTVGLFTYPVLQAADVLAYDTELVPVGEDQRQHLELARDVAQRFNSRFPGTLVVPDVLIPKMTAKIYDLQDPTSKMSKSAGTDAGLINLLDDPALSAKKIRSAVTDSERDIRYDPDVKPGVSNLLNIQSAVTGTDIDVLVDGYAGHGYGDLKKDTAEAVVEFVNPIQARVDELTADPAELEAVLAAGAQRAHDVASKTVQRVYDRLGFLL

From ChEMBL document CHEMBL3988442, “University of Dundee, Small-Polar-MMV Screening Library” (2021).

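Tryptophan-tRNA ligase, Mycobacterium tuberculosis (UniProt P9WFT3). Enzyme assay of tryptophanyl-tRNA synthetase; the read-out is not stated. Tested at 10 µM. Direction is not recorded; retested compounds ran higher, which suggests that high means inhibition. Of about 65,000 compounds tested this way, about 64 (0.098%) reached 50% or more in at least one test.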

Values are the deposited “Percent Effect”, in %. The controls that fix the scale are not given in the record; negative values are as filed. This is an unselected part of the compounds tested.

Compound: COCCC1(CO)CCCN(C(=O)c2cccnc2OC)C1 (centres unmarked)
percent effect: -2.594%

Compound: CCc1nc(CCNc2ncccc2S(N)(=O)=O)sc1C
percent effect: 1.234%

Compound: Cc1cccc(NC(=O)[C@@H]2CCCN2Cc2nc3ccccc3o2)n1
percent effect: 5.72%

Compound: O=C(O)c1nnn(-c2cccc(C(F)(F)F)c2)c1C1CC1
percent effect: 1.655%

Compound: CCCN(CC1CC1)S(=O)(=O)c1ccc(NC(C)=O)cc1
percent effect: -3.498%

Compound: COCCOc1cccc(C(=O)N2CCCCC2c2nccs2)c1 (centres unmarked)
percent effect: -1.412%

Compound: Cc1nn(-c2ccccc2)cc1C(=O)N1CCCC(n2cccn2)C1 (centres unmarked)
percent effect: -2.28%

Compound: Cc1cccc(CN2C[C@@H](CN3CCCN(C)CC3)[C@@H](CO)C2)n1
percent effect: 4.025%

Compound: O=C(CCCNc1ncccn1)Nc1ccc(Cn2cncn2)cc1
percent effect: -4.432%

Compound: CC(C)NC(=O)N1CCOC2(CCCN(c3cccc(C#N)c3)C2)C1 (centres unmarked)
percent effect: 0.7757%

Compound: CC[C@H]1CN(C(=O)c2cccnc2)CC[C@H]1CC(=O)NC1CC1
percent effect: 0.5271%

Compound: Cc1ncsc1CCC(=O)N(C)Cc1nc2ccccc2n1C
percent effect: 4.915%

Compound: O=C(CCc1ccccc1F)NS(=O)(=O)c1ccc2c(c1)OCCCO2
percent effect: -4.776%

Compound: CCC(CNC(=O)CNC(C)=O)Oc1cccc(F)c1 (centres unmarked)
percent effect: 4.371%

Compound: c1ccc(-c2nc(CCNCc3cccnc3)co2)cc1
percent effect: 7.613%

Compound: CS(=O)(=O)NC(=O)c1ccn(-c2cccc(Br)c2)n1
percent effect: -1.361%

Compound: O=C(NCCc1cccc(F)c1)C1(n2cnnn2)CCCCC1
percent effect: -3.476%

Compound: Cc1ccnn1-c1ccc(C(=O)N2CCN(c3cnccn3)CC2)cc1
percent effect: -1.947%

Compound: O=C(C1CCOC1)N1CCc2ncnc(NC3CCC3)c2CC1 (centres unmarked)
percent effect: -1.106%

Compound: Cc1cccc(CN(Cc2ccc(C)o2)C2CC(C)(C)NC(C)(C)C2)n1
percent effect: 2.759%

Compound: CCn1nc(C(=O)N2CCCC(n3cncn3)C2)ccc1=O (centres unmarked)
percent effect: -1.173%

Compound: Cc1cc(C)c2c(NCCC34CCCN3CCC4)ncnc2n1
percent effect: -0.8051%

Compound: CS(=O)(=O)NCC1CCCN(C(=O)Nc2ccccc2N2CCCC2)C1 (centres unmarked)
percent effect: -1.59%

Compound: COC(=O)NC1(C(=O)NCc2ccc(-c3ccn[nH]3)cc2)CCCC1
percent effect: -0.7098%

Compound: Cc1cnn(CC(C)NCc2ccc(OCc3cccnc3)cc2)c1 (centres unmarked)
percent effect: -0.3834%

Compound: CNc1oc(-c2ccc(OC)c(S(=O)(=O)N(C)C)c2)nc1C#N
percent effect: -3.145%

Compound: Cn1cc(CN2CCn3cc(CNC(=O)c4cccn4C)nc3C2)cn1
percent effect: 5.286%

Compound: Cc1cccc(CN2CCS(=O)(=O)[C@@H]3CCN(S(C)(=O)=O)CC[C@@H]32)n1
percent effect: 9.796%

Compound: Cc1ccc(CN2CC[C@@H]3CN(S(C)(=O)=O)CCO[C@@H]3C2)o1
percent effect: 14.73%

Compound: CN1CCN(CC2CC2)C(=O)c2cnc(N3CCCCC3)nc21
percent effect: -1.943%

Compound: CCc1cccnc1NCc1cnc(N2CCOCC2)nc1
percent effect: 13.32%